The nature of data set [1]: general procedure: Boc solid-phase peptide synthesis; MBHA; DIC; preformed HOBt esters for Boc-Asn-OH and Boc-Gln-OH. The conditions noted are these: whole synthesis, scale 0.50 mmol.
Data set [2] can be described thus: general procedure: Boc solid-phase peptide synthesis; MBHA (preferred for amidated C-terminus, Boc strategy); Merrifield or HMBA-MBHA for C-terminal ethylamide; DIC; preformed HOBt esters for Boc-Asn-OH and Boc-Gln-OH. The conditions noted are these: whole synthesis, 220 and 280 nm.
The nature of data set [3]: general procedure: Boc solid-phase peptide synthesis; Boc-Agm-SPA-MBHA; DIC; preformed HOBt esters for Boc-Asn-OH and Boc-Gln-OH. The conditions noted are these: whole synthesis, scale 0.50 mmol.
A short description of data set [4]: general procedure: Boc solid-phase peptide synthesis; Boc-Ada-Merrifield; DIC; preformed HOBt esters for Boc-Asn-OH and Boc-Gln-OH. The conditions noted are these: whole synthesis, scale 0.50 mmol.

For part of these data: The same purity stands for every peptide and may come from a single statement.

In data set [1], “Ac-Ada^0-Tyr^1-D-Arg^2-Asp^3-Ala^4-Ile^5-Cpa^6-Thr^7-Ala^8-Har^9-Fpa5^10-His^11-Orn^12-Val^13-Leu^14-Abu^15-Gln^16-Leu^17-Ser^18-Ala^19-His^20-Orn^21-Leu^22-Leu^23-Gln^24-Asp^25-Ile^26-Nle^27-D-Arg^28-Har^29-NH2” came in with a crude mass of 167 mg and an isolated mass of 19.8 mg. For the same substance, the “final HPLC purity” value in data set [2] was over 95%.

Regarding “(PhF5Ac-Ada)^0-Tyr^1-D-Arg^2-Asp^3-Ala^4-Ile^5-Cpa^6-Thr^7-(Me-Ala)^8-Har^9-Fpa5^10-His^11-Orn^12-Val^13-Leu^14-His^15-Gln^16-Glu^17-Ser^18-Ala^19-His^20-Orn^21-Leu^22-Leu^23-Gln^24-Asp^25-Ile^26-Nle^27-D-Arg^28-Har^29-Agm^30”, in data set [3], the crude mass came out at 127 mg and the isolated mass stood at 11.3 mg. Further, the “final HPLC purity” value in data set [2] is over 95%.

“[(PhAc-Ada)^0-Tyr^1, D-Arg^2, Cpa^6, (Me-Ala)^8, Har^9, Fpa5^10, His^11, Orn^12, His^15, Glu^17, His^20, Orn^21, Nle^27, D-Arg^28, Har^29, Ada^30]hGH-RH(1-30)OH”: in data set [4], the crude mass is on record as 107 mg and the isolated mass was found to be 11.3 mg. For the same substance, in data set [2], the “final HPLC purity” value was over 95%.

In data set [1], “PhAc^0-Tyr^1-D-Arg^2-Asp^3-Ala^4-Ile^5-Cpa^6-Thr^7-Ala^8-Har^9-Fpa5^10-His^11-Orn^12-Val^13-Leu^14-Abu^15-Gln^16-Leu^17-Ser^18-Ala^19-His^20-Orn^21-Leu^22-Leu^23-Gln^24-Asp^25-Ile^26-Nle^27-D-Arg^28-Har^29-Ada^30-NH2” registered a crude mass of 132 mg and an isolated mass of 10.2 mg. Further, the “final HPLC purity” value in data set [2] was over 95%.

The values above are taken from patent US8227421B2 (University of Miami, priority 2009, dated 2012).
